Measurements published in PubChem BioAssay AID274 (DTP/NCI, 2004).
The list does not hold the whole screen: it gathers tests that were run many times, whatever their T/C, doses with no T/C, and many T/C values between a quarter and a half above the control. Further doses and runs are listed elsewhere. T/C gives the treated animals as a percentage of the vehicle group. Some entries give survivors of the animals treated and no T/C: the source holds a T/C of zero for them, seemingly a mark for toxic or unscored doses. Some survivor counts are full or nearly so, which does not show that the dose was tolerated: the source hardly ever lists a survival T/C far under the control, and the zero likely stands for such cases as well. Counts of survivors are from the toxicity check (mostly the fifth day) where no day follows; animals may have died later. Schedules are NCI's codes, read here as Q, the interval in days (D) or hours (H), X, the number of doses. Where survival is the endpoint, the PubChem record calls one and a half times the control and up active, and a quarter to a half above the control has no call in these data; cut-offs in other NCI protocols can differ.

Test system: BDF1 mice, Lewis lung carcinoma iv, survival T/C
Assay: NCI In Vivo Anticancer Drug Screen. Data for tumor model Lewis Lung Carcinoma (intravenous) in B6D2F1 (BDF1) mice
Settings: T/C endpoint: median survival time, schedule: Q01DX009 (ip), higher T/C = longer survival
Method: The antitumor activity of compounds was measured in mice bearing transplantable tumors. Survival or tumor size were measured and the results are expressed as the measurement made in the treated group (T) divided by the measurement made in the vehicle treated control group (C). The tumor model used in this assay is Lewis Lung Carcinoma (intravenous) in B6D2F1 (BDF1) mice

Cc1cc2c(c3oc(C4(C)OC4C4OC4C)cc(=O)c13)C(=O)c1c(O)c(C3CC(C)(N(C)C)C(O)C(C)O3)cc(C3CC(N(C)C)C(O)C(C)O3)c1C2=O (configuration not stated)
T/C (dose: 0.6 micrograms/kg/injection, vehicle: Klucel (hydroxypropylcellulose) (HPC)): 134 % of control | survivor count (dose: 1.2 micrograms/kg/injection, vehicle: Klucel (hydroxypropylcellulose) (HPC)): 10 of 10 | survivor count (dose: 2.5 micrograms/kg/injection, vehicle: Klucel (hydroxypropylcellulose) (HPC)): 10 of 10 | survivor count (dose: 5.0 micrograms/kg/injection, vehicle: Klucel (hydroxypropylcellulose) (HPC)): 10 of 10 | survivor count (dose: 10.0 micrograms/kg/injection, vehicle: Klucel (hydroxypropylcellulose) (HPC)): 10 of 10 | survivor count (dose: 20.0 micrograms/kg/injection, vehicle: Klucel (hydroxypropylcellulose) (HPC)): 6 of 10

CO[C@@]12[C@H](COC(N)=O)C3=C(C(=O)C(C)=C(N)C3=O)N1C[C@@H]1N[C@@H]12
survivor count (dose: 2.0 mg/kg/injection, vehicle: saline): 10 of 10 | survivor count (dose: 4.0 mg/kg/injection, vehicle: saline): 10 of 10

O=C(C1CO1)C(Cl)(Cl)Cl (configuration not stated)
survivor count (dose: 50.0 mg/kg/injection, vehicle: saline): 5 of 10 | survivor count (dose: 100.0 mg/kg/injection, vehicle: saline): 0 of 10

CC1CCC2(OC1)OC1CC3C4CCC5CC(O)CCC5(C)C4CCC3(C)C1C2C (configuration not stated)
survivor count (dose: 10.0 mg/kg/injection, vehicle: Klucel (hydroxypropylcellulose) (HPC)): 10 of 10 | survivor count (dose: 40.0 mg/kg/injection, vehicle: Klucel (hydroxypropylcellulose) (HPC)): 10 of 10
